Measurements reported in PMC7290672.
No constants are given. Whether binding was seen depends on the method and setting. In cells and extracts the contact can be indirect. Some results given as binding are weak or reduced against the parent protein; the word gives no strength.

Sequences of proteins named here, by UniProt entry; tags and fusion partners are left off. A change or cut given only in a name is not applied to a line headed by its entry. A line that says so, or that is headed by a name, gives the form on record, which may keep a tag or linker.
UniProt Q01094: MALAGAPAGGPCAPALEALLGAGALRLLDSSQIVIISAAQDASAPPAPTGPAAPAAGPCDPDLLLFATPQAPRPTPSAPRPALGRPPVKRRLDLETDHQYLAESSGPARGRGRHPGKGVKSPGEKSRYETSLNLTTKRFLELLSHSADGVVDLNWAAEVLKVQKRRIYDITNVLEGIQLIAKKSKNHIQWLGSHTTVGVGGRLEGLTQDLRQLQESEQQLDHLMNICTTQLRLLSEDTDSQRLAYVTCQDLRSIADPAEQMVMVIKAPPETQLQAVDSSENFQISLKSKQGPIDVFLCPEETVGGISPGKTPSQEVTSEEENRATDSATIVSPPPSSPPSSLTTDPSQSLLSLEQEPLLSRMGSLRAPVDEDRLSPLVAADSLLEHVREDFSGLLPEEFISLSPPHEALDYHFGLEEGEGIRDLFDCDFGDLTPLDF
UniProt P10275: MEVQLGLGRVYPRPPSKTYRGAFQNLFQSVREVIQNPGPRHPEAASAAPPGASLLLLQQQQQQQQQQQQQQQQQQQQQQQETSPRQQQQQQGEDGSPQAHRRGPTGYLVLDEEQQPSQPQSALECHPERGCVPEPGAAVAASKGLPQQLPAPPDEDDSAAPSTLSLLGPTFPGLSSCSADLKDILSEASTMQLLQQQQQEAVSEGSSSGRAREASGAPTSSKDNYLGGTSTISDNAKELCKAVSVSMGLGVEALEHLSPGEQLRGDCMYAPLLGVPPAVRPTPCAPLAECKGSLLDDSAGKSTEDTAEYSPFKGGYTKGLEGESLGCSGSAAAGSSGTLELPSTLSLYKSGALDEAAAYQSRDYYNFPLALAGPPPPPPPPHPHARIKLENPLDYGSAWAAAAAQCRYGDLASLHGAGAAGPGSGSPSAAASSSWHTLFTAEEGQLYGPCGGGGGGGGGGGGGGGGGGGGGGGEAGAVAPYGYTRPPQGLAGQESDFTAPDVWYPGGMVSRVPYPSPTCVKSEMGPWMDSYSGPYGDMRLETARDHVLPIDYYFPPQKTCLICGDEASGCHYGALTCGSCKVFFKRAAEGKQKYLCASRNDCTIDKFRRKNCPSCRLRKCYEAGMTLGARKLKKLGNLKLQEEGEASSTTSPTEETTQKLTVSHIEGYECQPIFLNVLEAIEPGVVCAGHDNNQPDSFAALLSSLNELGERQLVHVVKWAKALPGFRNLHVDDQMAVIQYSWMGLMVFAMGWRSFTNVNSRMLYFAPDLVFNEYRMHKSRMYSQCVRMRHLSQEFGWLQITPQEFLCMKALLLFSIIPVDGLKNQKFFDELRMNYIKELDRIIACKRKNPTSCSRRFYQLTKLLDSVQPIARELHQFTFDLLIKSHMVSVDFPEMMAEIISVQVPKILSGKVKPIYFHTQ
androgen receptor splicing variant AR3 (a.k.a. AR-V7), endogenous in R1-ADR cells (P10275-3, form named): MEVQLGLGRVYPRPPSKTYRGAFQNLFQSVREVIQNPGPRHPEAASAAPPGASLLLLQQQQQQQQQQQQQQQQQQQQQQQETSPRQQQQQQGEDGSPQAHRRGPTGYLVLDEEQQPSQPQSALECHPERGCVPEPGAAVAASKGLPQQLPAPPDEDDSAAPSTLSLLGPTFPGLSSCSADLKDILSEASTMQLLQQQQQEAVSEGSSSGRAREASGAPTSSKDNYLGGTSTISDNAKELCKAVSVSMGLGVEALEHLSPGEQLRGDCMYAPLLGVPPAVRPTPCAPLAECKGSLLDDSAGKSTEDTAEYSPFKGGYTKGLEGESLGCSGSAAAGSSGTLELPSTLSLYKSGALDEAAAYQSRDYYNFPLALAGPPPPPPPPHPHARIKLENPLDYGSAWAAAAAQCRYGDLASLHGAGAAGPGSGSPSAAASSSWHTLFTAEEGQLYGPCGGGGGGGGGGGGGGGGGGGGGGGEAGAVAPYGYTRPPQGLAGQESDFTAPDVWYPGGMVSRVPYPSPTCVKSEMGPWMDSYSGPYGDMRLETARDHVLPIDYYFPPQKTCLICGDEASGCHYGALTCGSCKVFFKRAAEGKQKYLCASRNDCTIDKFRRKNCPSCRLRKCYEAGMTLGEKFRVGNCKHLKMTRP

How the values were obtained:
[1] = target: E2F1-HA overexpressed in HEK293T cells (pCMVHA E2F1) (UniProt Q01094); test: co-IP; HEK293T cells cotransfected with AR-FL, AR3 and/or E2F1-HA, grown 48 h; lysates immunoprecipitated with an anti-AR or anti-HA antibody, western blot
[2] = target: E2F1, endogenous in R1-ADR cells (human (endogenous in R1-ADR)) (UniProt Q01094); test: co-IP; endogenous proteins in R1-ADR cell lysates; cells infected with lentivirus encoding control shRNA, shAR3 or shAR-FL for 48 h; immunoprecipitated with an anti-AR or anti-E2F1 antibody, western blot
[3] = target: T1, Rb, endogenous in R1-ADR cells (human (endogenous in R1-ADR)) (UniProt P06400); test: co-IP; endogenous proteins in R1-ADR cell lysates; cells infected with lentivirus encoding control shRNA, shAR3 or shAR-FL for 48 h, then treated with 10nM DHT for 2 h; immunoprecipitated with an anti-AR or anti-Rb antibody, western blot
T1 sequence: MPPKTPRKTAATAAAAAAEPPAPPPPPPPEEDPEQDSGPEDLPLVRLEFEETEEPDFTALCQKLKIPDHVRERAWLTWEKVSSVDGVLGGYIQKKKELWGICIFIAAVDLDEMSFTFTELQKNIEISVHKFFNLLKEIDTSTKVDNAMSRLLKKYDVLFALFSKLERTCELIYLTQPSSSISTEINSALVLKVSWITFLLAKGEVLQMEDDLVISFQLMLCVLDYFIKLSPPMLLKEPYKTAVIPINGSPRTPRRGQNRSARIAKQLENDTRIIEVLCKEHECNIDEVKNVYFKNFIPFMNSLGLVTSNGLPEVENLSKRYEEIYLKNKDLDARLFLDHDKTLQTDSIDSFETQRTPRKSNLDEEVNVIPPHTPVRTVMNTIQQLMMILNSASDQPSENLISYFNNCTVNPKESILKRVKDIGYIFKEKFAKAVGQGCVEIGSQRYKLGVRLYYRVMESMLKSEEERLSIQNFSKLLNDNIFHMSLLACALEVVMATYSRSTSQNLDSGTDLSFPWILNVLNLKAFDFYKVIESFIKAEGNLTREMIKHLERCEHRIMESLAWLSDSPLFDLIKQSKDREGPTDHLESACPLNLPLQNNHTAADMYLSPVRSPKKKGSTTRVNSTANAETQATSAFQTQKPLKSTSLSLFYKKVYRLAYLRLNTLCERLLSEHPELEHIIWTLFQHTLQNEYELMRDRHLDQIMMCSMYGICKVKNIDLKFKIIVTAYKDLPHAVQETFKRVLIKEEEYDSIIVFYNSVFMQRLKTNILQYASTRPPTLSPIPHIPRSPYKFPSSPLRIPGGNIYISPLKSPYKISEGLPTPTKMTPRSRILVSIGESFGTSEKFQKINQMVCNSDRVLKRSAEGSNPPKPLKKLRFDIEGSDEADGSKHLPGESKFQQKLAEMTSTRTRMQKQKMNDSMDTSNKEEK

Row | binding [1] | binding [2] | binding [3] | Substance
1 | binds |  |  | AR3 overexpressed in HEK293T cells (from UniProt P10275-3 1-644)
2 |  | binds | binds | androgen receptor full length (AR-FL), endogenous in R1-ADR cells (from UniProt P10275 1-920)
3 |  | binds | no binding | androgen receptor splicing variant AR3 (a.k.a. AR-V7), endogenous in R1-ADR cells (from UniProt P10275-3 1-644)
4 | binds |  |  | AR-FL overexpressed in HEK293T cells (from UniProt P10275 1-920)
